Measured values published in paper doi:10.1101/2025.02.28.640727.
Results are given in words; binding and its absence hold for the method and conditions named. In cells and extracts the contact can be indirect. Some binding calls cover weakened binding; strength is not graded here. For some assays here: Tags and fused reporters may be left off the sequences shown.

T1: TMK INTeractor 6 (TINT6; Clavata3 Insensitive Receptor Kinase 4, CIK4), pUBQ10::TINT6-3xHA (Arabidopsis thaliana) (UniProt C0LGU5)
T1 sequence: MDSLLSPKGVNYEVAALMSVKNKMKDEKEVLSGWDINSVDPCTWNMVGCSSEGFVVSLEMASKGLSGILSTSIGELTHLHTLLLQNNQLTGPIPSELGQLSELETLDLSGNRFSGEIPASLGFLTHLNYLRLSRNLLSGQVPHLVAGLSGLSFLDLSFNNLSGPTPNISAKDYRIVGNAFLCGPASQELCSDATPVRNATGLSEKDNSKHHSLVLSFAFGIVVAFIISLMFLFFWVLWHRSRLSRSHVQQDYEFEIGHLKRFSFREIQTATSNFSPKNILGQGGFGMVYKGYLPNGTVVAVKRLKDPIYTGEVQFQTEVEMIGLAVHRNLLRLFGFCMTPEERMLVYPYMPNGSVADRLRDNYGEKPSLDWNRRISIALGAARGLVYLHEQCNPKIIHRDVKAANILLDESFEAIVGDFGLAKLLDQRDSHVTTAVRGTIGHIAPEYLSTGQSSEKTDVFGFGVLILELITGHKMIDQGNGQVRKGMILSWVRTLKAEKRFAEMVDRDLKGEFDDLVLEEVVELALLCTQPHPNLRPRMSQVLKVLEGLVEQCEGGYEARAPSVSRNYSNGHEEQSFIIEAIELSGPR

B1: Transmembrane Kinase 1 (TMK1), FLAG-tagged (receptor, UniProt P43298 24-942)
chain: DSDGDLSAMLSLKKSLNPPSSFGWSDPDPCKWTHIVCTGTKRVTRIQIGHSGLQGTLSPDLRNLSELERLELQWNNISGPVPSLSGLASLQVLMLSNNNFDSIPSDVFQGLTSLQSVEIDNNPFKSWEIPESLRNASALQNFSANSANVSGSLPGFLGPDEFPGLSILHLAFNNLEGELPMSLAGSQVQSLWLNGQKLTGDITVLQNMTGLKEVWLHSNKFSGPLPDFSGLKELESLSLRDNSFTGPVPASLLSLESLKVVNLTNNHLQGPVPVFKSSVSVDLDKDSNSFCLSSPGECDPRVKSLLLIASSFDYPPRLAESWKGNDPCTNWIGIACSNGNITVISLEKMELTGTISPEFGAIKSLQRIILGINNLTGMIPQELTTLPNLKTLDVSSNKLFGKVPGFRSNVVVNTNGNPDIGKDKSSLSSPGSSSPSGGSGSGINGDKDRRGMKSSTFIGIIVGSVLGGLLSIFLIGLLVFCWYKKRQKRFSGSESSNAVVVHPRHSGSDNESVKITVAGSSVSVGGISDTYTLPGTSEVGDNIQMVEAGNMLISIQVLRSVTNNFSSDNILGSGGFGVVYKGELHDGTKIAVKRMENGVIAGKGFAEFKSEIAVLTKVRHRHLVTLLGYCLDGNEKLLVYEYMPQGTLSRHLFEWSEEGLKPLLWKQRLTLALDVARGVEYLHGLAHQSFIHRDLKPSNILLGDDMRAKVADFGLVRLAPEGKGSIETRIAGTFGYLAPEYAVTGRVTTKVDVYSFGVILMELITGRKSLDESQPEESIHLVSWFKRMYINKEASFKKAIDTTIDLDEETLASVHTVAELAGHCCAREPYQRPDMGHAVNILSSLVELWKPSDQNPEDIYGIDLDMSLPQALKKWQAYEGRSDLESSTSSLLPSLDNTQMSIPTRPYGFAESFTSVDGR
B2: Transmembrane Kinase 1 (TMK1), p35S::TMK1-SCFP3A^N (receptor, UniProt P43298 24-942)
chain: DSDGDLSAMLSLKKSLNPPSSFGWSDPDPCKWTHIVCTGTKRVTRIQIGHSGLQGTLSPDLRNLSELERLELQWNNISGPVPSLSGLASLQVLMLSNNNFDSIPSDVFQGLTSLQSVEIDNNPFKSWEIPESLRNASALQNFSANSANVSGSLPGFLGPDEFPGLSILHLAFNNLEGELPMSLAGSQVQSLWLNGQKLTGDITVLQNMTGLKEVWLHSNKFSGPLPDFSGLKELESLSLRDNSFTGPVPASLLSLESLKVVNLTNNHLQGPVPVFKSSVSVDLDKDSNSFCLSSPGECDPRVKSLLLIASSFDYPPRLAESWKGNDPCTNWIGIACSNGNITVISLEKMELTGTISPEFGAIKSLQRIILGINNLTGMIPQELTTLPNLKTLDVSSNKLFGKVPGFRSNVVVNTNGNPDIGKDKSSLSSPGSSSPSGGSGSGINGDKDRRGMKSSTFIGIIVGSVLGGLLSIFLIGLLVFCWYKKRQKRFSGSESSNAVVVHPRHSGSDNESVKITVAGSSVSVGGISDTYTLPGTSEVGDNIQMVEAGNMLISIQVLRSVTNNFSSDNILGSGGFGVVYKGELHDGTKIAVKRMENGVIAGKGFAEFKSEIAVLTKVRHRHLVTLLGYCLDGNEKLLVYEYMPQGTLSRHLFEWSEEGLKPLLWKQRLTLALDVARGVEYLHGLAHQSFIHRDLKPSNILLGDDMRAKVADFGLVRLAPEGKGSIETRIAGTFGYLAPEYAVTGRVTTKVDVYSFGVILMELITGRKSLDESQPEESIHLVSWFKRMYINKEASFKKAIDTTIDLDEETLASVHTVAELAGHCCAREPYQRPDMGHAVNILSSLVELWKPSDQNPEDIYGIDLDMSLPQALKKWQAYEGRSDLESSTSSLLPSLDNTQMSIPTRPYGFAESFTSVDGR

Assays:
[1] = biological target: T1, TMK INTeractor 6 (TINT6; Clavata3 Insensitive Receptor Kinase 4, CIK4), pUBQ10::TINT6-3xHA (Arabidopsis thaliana); assay: co-IP
[2] = biological target: Transmembrane Kinase 1 (TMK1), p35S::TMK1-SCFP3A^N (Arabidopsis thaliana) (UniProt P43298); assay: split reporter

Binder	binding [1]	binding [2]
B1	binds	–
B2	–	binds
